Measured values from publication PMC10630151.
These are yes or no findings as the source states them, for the method shown. Binding can be weak; no strength is given.

Amino acid sequences for entries named in this document (tags omitted). Residues count along the entry.
UniProt O95166: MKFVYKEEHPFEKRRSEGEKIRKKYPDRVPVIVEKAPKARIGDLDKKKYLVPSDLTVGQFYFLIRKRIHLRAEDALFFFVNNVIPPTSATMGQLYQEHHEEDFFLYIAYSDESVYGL
UniProt P60520: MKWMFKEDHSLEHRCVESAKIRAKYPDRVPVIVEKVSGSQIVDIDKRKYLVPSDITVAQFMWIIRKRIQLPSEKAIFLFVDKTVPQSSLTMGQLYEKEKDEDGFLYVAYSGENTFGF
UniProt Q9BXW4, residues 1-126: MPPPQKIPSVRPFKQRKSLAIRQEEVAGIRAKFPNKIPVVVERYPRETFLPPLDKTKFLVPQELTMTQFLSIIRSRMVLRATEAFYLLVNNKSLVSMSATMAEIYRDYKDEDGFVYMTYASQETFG

What follows are substances tested against GST-ARL6IP1 (recombinant, purified from E. coli) (human) (UniProt Q15041) (assay: pull-down; in vitro binding: GST-ARL6IP1 and His-LC3/GABARAP family proteins from E. coli (0.5 ug each), PBST, overnight, 4 C; GST-ARL6IP1 held on glutathione Sepharose 4B; western blot; both purified).

binding | Substance
binds | His-GABARAP (recombinant, purified from E. coli) (from UniProt O95166 1-117)
binds | His-GABARAPL2 (recombinant, purified from E. coli) (from UniProt P60520 1-117)
binds | His-LC3C (recombinant, purified from E. coli) (from UniProt Q9BXW4 1-126)
